{"source": "PubChem BioAssay AID1259254 (NCATS, 2017)", "purpose": "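Finding genes that stop cells copying their DNA twice in one cycle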 (primary screen)", "system": "human HCT116 colorectal cancer cells", "reagents": "single siRNA against human genes", "timing": "3 days", "measured": "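Imaged Hoechst DNA stain sorts each cell into a cycle phase by DNA amount; per plate, G2 fraction set to 0% for non-targeting and 100% for GMNN siRNA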", "direction": "G2 robust z-score and G2 cells, % of GMNN control: higher = more G2 cells, more excess DNA replication", "hit rule": "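Active siRNAs have a G2 robust z of 5 or more median absolute deviations over the median, which in these data means about 38% or higher of GMNN control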", "note": "Shown is one part, drawn at random, of about 59,000 deposited reagents. About 1,550 of them (2.6%) were called active. 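G2 share is only a proxy for re-replication; each gene was hit by three separate siRNAs, and active genes were retested.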 Entries without a mark were called inactive. Reagents against one gene are numbered here. Not all columns of the deposit are shown. Not stated in the record: the amount of reagent."}
{"gene": "GINS4", "reagent": 1, "G2 robust z-score": -1.3, "G2 cells, % of GMNN control": -6.18}
{"gene": "GINS4", "reagent": 2, "G2 robust z-score": -0.386, "G2 cells, % of GMNN control": 0.253}
{"gene": "GINS4", "reagent": 3, "G2 robust z-score": -0.759, "G2 cells, % of GMNN control": -2.37}
{"gene": "L2HGDH", "reagent": 1, "G2 robust z-score": 0.646, "G2 cells, % of GMNN control": 7.51}
{"gene": "L2HGDH", "reagent": 2, "G2 robust z-score": -1.07, "G2 cells, % of GMNN control": -4.54}
{"gene": "L2HGDH", "reagent": 3, "G2 robust z-score": -0.473, "G2 cells, % of GMNN control": -0.363}
{"gene": "ACTR1A", "reagent": 1, "G2 robust z-score": 3.07, "G2 cells, % of GMNN control": 24.5}
{"gene": "ACTR1A", "reagent": 2, "G2 robust z-score": -0.782, "G2 cells, % of GMNN control": -2.54}
{"gene": "ACTR1A", "reagent": 3, "G2 robust z-score": -0.719, "G2 cells, % of GMNN control": -2.09}
{"gene": "PCGF2", "reagent": 1, "G2 robust z-score": -0.909, "G2 cells, % of GMNN control": -3.43}
{"gene": "PCGF2", "reagent": 2, "G2 robust z-score": -0.604, "G2 cells, % of GMNN control": -1.28}
{"gene": "PCGF2", "reagent": 3, "G2 robust z-score": -0.264, "G2 cells, % of GMNN control": 1.11}
{"gene": "COMMD2", "reagent": 1, "G2 robust z-score": 0.892, "G2 cells, % of GMNN control": 9.24}
{"gene": "COMMD2", "reagent": 2, "G2 robust z-score": 2.88, "G2 cells, % of GMNN control": 23.3}
{"gene": "COMMD2", "reagent": 3, "G2 robust z-score": -0.0839, "G2 cells, % of GMNN control": 2.38}
{"gene": "ATM", "reagent": 1, "G2 robust z-score": -0.208, "G2 cells, % of GMNN control": 1.5}
{"gene": "ATM", "reagent": 2, "G2 robust z-score": -0.631, "G2 cells, % of GMNN control": -1.47}
{"gene": "ATM", "reagent": 3, "G2 robust z-score": -0.957, "G2 cells, % of GMNN control": -3.77}
{"gene": "DBX1", "reagent": 1, "G2 robust z-score": 0.757, "G2 cells, % of GMNN control": 8.29}
{"gene": "DBX1", "reagent": 2, "G2 robust z-score": -0.0525, "G2 cells, % of GMNN control": 2.6}
{"gene": "DBX1", "reagent": 3, "G2 robust z-score": -1.15, "G2 cells, % of GMNN control": -5.12}
{"gene": "PCCA", "reagent": 1, "G2 robust z-score": -0.656, "G2 cells, % of GMNN control": -1.65}
{"gene": "PCCA", "reagent": 2, "G2 robust z-score": -0.68, "G2 cells, % of GMNN control": -1.81}
{"gene": "PCCA", "reagent": 3, "G2 robust z-score": -0.457, "G2 cells, % of GMNN control": -0.25}

Part of the list above, set out differently.
COMMD2 #3: G2 robust z-score = -0.0839; G2 cells, % of GMNN control = 2.38
ATM #1: G2 robust z-score = -0.208; G2 cells, % of GMNN control = 1.5
ATM #2: G2 robust z-score = -0.631; G2 cells, % of GMNN control = -1.47
